The source of these data is article PMC12530543.

Sequences of proteins named here, by UniProt entry; tags and fusion partners are left off.
UniProt P03407: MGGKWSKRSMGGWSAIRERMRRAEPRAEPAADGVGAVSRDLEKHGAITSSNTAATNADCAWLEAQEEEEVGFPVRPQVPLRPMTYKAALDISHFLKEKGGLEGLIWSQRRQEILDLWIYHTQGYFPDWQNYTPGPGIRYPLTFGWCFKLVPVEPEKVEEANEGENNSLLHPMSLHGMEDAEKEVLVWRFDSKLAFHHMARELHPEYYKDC

The experiment concerns the target HIV-1 SF2 Nef with an HA-tag (HIV-1 (SF2)) (UniProt P03407). Nature of the experiment: co-IP; Ser5-FLAG, Nef-HA or glycoGag-HA expressed alone, or Ser5-FLAG with Nef-HA, in HEK293T cells; RIPA lysis; anti-FLAG M2 magnetic beads or anti-HA affinity gel; endogenous RETREG1 detected by WB.

Results are given in words; binding and its absence hold for the method and conditions named. In cells and extracts the contact can be indirect.

Turning to “reticulophagy regulator 1 (RETREG1), endogenous (from UniProt Q9H6L5-1 1-497)”, the binding entry is “no binding”.
